{"source": "the supplement of paper PMC8728848", "test_in_all_cases": "glycan array binding signal (z-score within array); higher = stronger binding", "settings_in_all_cases": "glycan notation: IUPAC condensed, linker removed", "key": {"[1]": {"biological_target": "Neu5Ac(a2-3)Gal(b1-3)[Fuc(a1-4)]GlcNAc", "summary_of_the_method": "(§1)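 Columns mapping to the same glycan were averaged after glycan names were converted to IUPAC-condensed notation. The data come from 3228 arrays in the Consortium for Functional Glycomics database, limited to those with an available protein sequence. Binding is reported as a within-array Z-score averaged across arrays of one protein sequence and across linkers.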"}, "[2]": {"biological_target": "Neu5Ac(a2-3)Gal(b1-3)[Fuc(a1-4)]GlcNAc(b1-3)Gal(b1-3)[Fuc(a1-4)]GlcNAc", "summary_of_the_method": "as §1"}, "[3]": {"biological_target": "Neu5Ac(a2-3)Gal(b1-3)[Fuc(a1-4)]GlcNAc(b1-3)Gal(b1-4)[Fuc(a1-3)]GlcNAc", "summary_of_the_method": "as §1"}, "[4]": {"biological_target": "Neu5Ac(a2-3)Gal(b1-3)[GlcNAc(b1-6)]GalNAc", "summary_of_the_method": "as §1"}, "[5]": {"biological_target": "Neu5Ac(a2-3)Gal(b1-3)[Neu5Ac(a2-6)]GalNAc", "summary_of_the_method": "as §1"}, "[6]": {"biological_target": "Neu5Ac(a2-3)Gal(b1-3)[Neu5Ac(a2-6)]GlcNAc(b1-3)[Fuc(a1-3)[Gal(b1-4)]GlcNAc(b1-6)]Gal(b1-4)Glc", "summary_of_the_method": "as §1"}, "[7]": {"biological_target": "Neu5Ac(a2-3)Gal(b1-3)]Neu5Ac(a2-3)Gal(b1-4)]GlcNAc", "summary_of_the_method": "as §1"}, "Neu5Ac(a2-3)Gal(b1-4)Glc": {"biological_target": "Neu5Ac(a2-3)Gal(b1-4)Glc", "summary_of_the_method": "as §1"}, "[8]": {"biological_target": "Neu5Ac(a2-3)Gal(b1-4)GlcNAc", "summary_of_the_method": "as §1"}, "[9]": {"biological_target": "Neu5Ac(a2-3)Gal(b1-4)GlcNAc(b1-2)Man", "summary_of_the_method": "as §1"}, "[10]": {"biological_target": "Neu5Ac(a2-3)Gal(b1-4)GlcNAc(b1-2)Man(a1-3)[GlcNAc(b1-4)][Neu5Ac(a2-3)Gal(b1-4)GlcNAc(b1-2)Man(a1-6)]Man(b1-4)GlcNAc(b1-4)GlcNAc", "summary_of_the_method": "as §1"}, "[11]": {"biological_target": "Neu5Ac(a2-3)Gal(b1-4)GlcNAc(b1-2)Man(a1-3)[Neu5Ac(a2-3)Gal(b1-4)GlcNAc(b1-2)Man(a1-6)]Man(b1-4)GlcNAc(b1-4)GlcNAc", "summary_of_the_method": "as §1"}, "[12]": {"biological_target": "Neu5Ac(a2-3)Gal(b1-4)GlcNAc(b1-2)Man(a1-3)[Neu5Ac(a2-3)Gal(b1-4)GlcNAc(b1-2)Man(a1-6)]Man(b1-4)GlcNAc(b1-4)[Fuc(a1-6)]GlcNAc", "summary_of_the_method": "as §1"}, "[13]": {"biological_target": "Neu5Ac(a2-3)Gal(b1-4)GlcNAc(b1-2)Man(a1-3)[Neu5Ac(a2-6)Gal(b1-4)GlcNAc(b1-2)Man(a1-6)]Man(b1-4)GlcNAc(b1-4)GlcNAc", "summary_of_the_method": "as §1"}, "[14]": {"biological_target": "Neu5Ac(a2-3)Gal(b1-4)GlcNAc(b1-2)[Neu5Ac(a2-3)Gal(b1-4)GlcNAc(b1-4)]Man(a1-3)[GlcNAc(b1-4)][Neu5Ac(a2-3)Gal(b1-4)GlcNAc(b1-2)[Neu5Ac(a2-3)Gal(b1-4)GlcNAc(b1-6)]Man(a1-6)]Man(b1-4)GlcNAc(b1-4)GlcNAc", "summary_of_the_method": "as §1"}, "[15]": {"biological_target": "Neu5Ac(a2-3)Gal(b1-4)GlcNAc(b1-2)[Neu5Ac(a2-3)Gal(b1-4)GlcNAc(b1-4)]Man(a1-3)[GlcNAc(b1-4)][Neu5Ac(a2-3)Gal(b1-4)GlcNAc(b1-4)Man(a1-6)]Man(b1-4)GlcNAc(b1-4)GlcNAc", "summary_of_the_method": "as §1"}, "[16]": {"biological_target": "Neu5Ac(a2-3)Gal(b1-4)GlcNAc(b1-2)[Neu5Ac(a2-3)Gal(b1-4)GlcNAc(b1-6)]Man(a1-6)[Neu5Ac(a2-3)Gal(b1-4)GlcNAc(b1-2)Man(a1-3)]Man(b1-4)GlcNAc(b1-4)GlcNAc", "summary_of_the_method": "as §1"}, "[17]": {"biological_target": "Neu5Ac(a2-3)Gal(b1-4)GlcNAc(b1-2)[Neu5Ac(a2-3)Gal(b1-4)GlcNAc(b1-6)]Man(a1-6)[Neu5Ac(a2-3)Gal(b1-4)GlcNAc(b1-2)Man(a1-3)][GlcNAc(b1-4)]Man(b1-4)GlcNAc(b1-4)GlcNAc", "summary_of_the_method": "as §1"}, "[18]": {"biological_target": "Neu5Ac(a2-3)Gal(b1-4)GlcNAc(b1-3)Gal", "summary_of_the_method": "as §1"}, "[19]": {"biological_target": "Neu5Ac(a2-3)Gal(b1-4)GlcNAc(b1-3)Gal(b1-3)GlcNAc", "summary_of_the_method": "as §1"}, "[20]": {"biological_target": "Neu5Ac(a2-3)Gal(b1-4)GlcNAc(b1-3)Gal(b1-4)GlcNAc", "summary_of_the_method": "as §1"}, "[21]": {"biological_target": "Neu5Ac(a2-3)Gal(b1-4)GlcNAc(b1-3)Gal(b1-4)GlcNAc(b1-2)Man(a1-3)[Neu5Ac(a2-3)Gal(b1-4)GlcNAc(b1-3)Gal(b1-4)GlcNAc(b1-2)Man(a1-6)]Man(b1-4)GlcNAc(b1-4)GlcNAc", "summary_of_the_method": "as §1"}, "[22]": {"biological_target": "Neu5Ac(a2-3)Gal(b1-4)GlcNAc(b1-3)Gal(b1-4)GlcNAc(b1-3)Gal(b1-4)GlcNAc", "summary_of_the_method": "as §1"}, "[23]": {"biological_target": "Neu5Ac(a2-3)Gal(b1-4)GlcNAc(b1-3)Gal(b1-4)GlcNAc(b1-3)Gal(b1-4)GlcNAc(b1-2)Man(a1-3)[Neu5Ac(a2-3)Gal(b1-4)GlcNAc(b1-3)Gal(b1-4)GlcNAc(b1-3)Gal(b1-4)GlcNAc(b1-2)Man(a1-6)]GalNAc", "summary_of_the_method": "as §1"}, "[24]": {"biological_target": "Neu5Ac(a2-3)Gal(b1-4)GlcNAc(b1-3)Gal(b1-4)GlcNAc(b1-3)GalNAc", "summary_of_the_method": "as §1"}, "[25]": {"biological_target": "Neu5Ac(a2-3)Gal(b1-4)GlcNAc(b1-3)Gal(b1-4)GlcNAc(b1-3)[Neu5Ac(a2-3)Gal(b1-4)GlcNAc(b1-3)Gal(b1-4)GlcNAc(b1-6)]GalNAc", "summary_of_the_method": "as §1"}, "[26]": {"biological_target": "Neu5Ac(a2-3)Gal(b1-4)GlcNAc(b1-3)Gal(b1-4)GlcNAc(b1-6)[Gal(b1-3)]GalNAc", "summary_of_the_method": "as §1"}, "[27]": {"biological_target": "Neu5Ac(a2-3)Gal(b1-4)GlcNAc(b1-3)Gal(b1-4)[Fuc(a1-3)]GlcNAc", "summary_of_the_method": "as §1"}, "[28]": {"biological_target": "Neu5Ac(a2-3)Gal(b1-4)GlcNAc(b1-3)GalNAc", "summary_of_the_method": "as §1"}, "[29]": {"biological_target": "Neu5Ac(a2-3)Gal(b1-4)GlcNAc(b1-3)[Neu5Ac(a2-3)Gal(b1-4)GlcNAc(b1-6)]GalNAc", "summary_of_the_method": "as §1"}}, "note": "Some of the results follow."}
{"binder": "GS7807I-bvu-563-22-563 (Bacteroides vulgatus) (protein) IFSSCTDDFEKLNTSNIQVDPADLPFAAQCTEPMTYCYPPQQNMFQFWTNLTIDLYGGYFMTPNGNFTNGDMGENRGHSGGMYENYYLHIFNNTRRIIAQCDASGERGLSGVMRIVQAYGTLMTTDAYGPIPYSSILSGENEVYFEFDSQKDLYKAMLEDLSTAITDISAMGADEIAKLKSFDCWCNGDKDLWVKIANTMKLRMALRLSKRETEAGNAGMNLKAIATEAAQNTLATVNKDILIDKSLENEMWLMFNWGDCGFNANLVTIMSGTKDPRQPLYMTLNTGDIKNEAGTTTVAANSQYLGIRFASGLPAKPNSWGNFSGWIQGNNGSSYSMPLPIMKAAEAYFLLAEAKLRWDIGSESVKNLYENGIRVSMTNELAYRGAYAGIKEYPEGAVDAYINGTSTQIDYTDPIKAELSTPAVNKLSVKWDESASNEEKLERIITQKWLALFPLSTEGWAEQRRTGYPRFFPAFVNESNGAVNTEEGVRRVIYSSQAYDANAKGVEGGIKLLDEENSSKFGISGDKGGTHLWWDNADKGNF", "values": [{"measurement": "glycan array binding signal (z-score)", "setting": "[1]", "value": 0.417}, {"measurement": "glycan array binding signal (z-score)", "setting": "[2]", "value": 0.599}, {"measurement": "glycan array binding signal (z-score)", "setting": "[3]", "value": -1.64}, {"measurement": "glycan array binding signal (z-score)", "setting": "[4]", "value": 0.671}, {"measurement": "glycan array binding signal (z-score)", "setting": "[5]", "value": -0.879}, {"measurement": "glycan array binding signal (z-score)", "setting": "[6]", "value": -1.42}, {"measurement": "glycan array binding signal (z-score)", "setting": "[7]", "value": -0.616}, {"measurement": "glycan array binding signal (z-score)", "setting": "Neu5Ac(a2-3)Gal(b1-4)Glc", "value": 0.689}, {"measurement": "glycan array binding signal (z-score)", "setting": "[8]", "value": 0.191}, {"measurement": "glycan array binding signal (z-score)", "setting": "[9]", "value": 2.84}, {"measurement": "glycan array binding signal (z-score)", "setting": "[10]", "value": 0.465}, {"measurement": "glycan array binding signal (z-score)", "setting": "[11]", "value": 1.34}, {"measurement": "glycan array binding signal (z-score)", "setting": "[12]", "value": 0.738}, {"measurement": "glycan array binding signal (z-score)", "setting": "[13]", "value": -0.834}, {"measurement": "glycan array binding signal (z-score)", "setting": "[14]", "value": 0.043}, {"measurement": "glycan array binding signal (z-score)", "setting": "[15]", "value": 0.21}, {"measurement": "glycan array binding signal (z-score)", "setting": "[16]", "value": 0.794}, {"measurement": "glycan array binding signal (z-score)", "setting": "[17]", "value": -1.12}, {"measurement": "glycan array binding signal (z-score)", "setting": "[18]", "value": 0.883}, {"measurement": "glycan array binding signal (z-score)", "setting": "[19]", "value": -0.109}, {"measurement": "glycan array binding signal (z-score)", "setting": "[20]", "value": 0.307}, {"measurement": "glycan array binding signal (z-score)", "setting": "[21]", "value": 0.172}, {"measurement": "glycan array binding signal (z-score)", "setting": "[22]", "value": 1.28}, {"measurement": "glycan array binding signal (z-score)", "setting": "[23]", "value": -0.119}, {"measurement": "glycan array binding signal (z-score)", "setting": "[24]", "value": -0.919}, {"measurement": "glycan array binding signal (z-score)", "setting": "[25]", "value": 1.48}, {"measurement": "glycan array binding signal (z-score)", "setting": "[26]", "value": 0.201}, {"measurement": "glycan array binding signal (z-score)", "setting": "[27]", "value": -0.778}, {"measurement": "glycan array binding signal (z-score)", "setting": "[28]", "value": -0.808}, {"measurement": "glycan array binding signal (z-score)", "setting": "[29]", "value": -0.146}]}
